The list shows a part of the results. These are further read-outs of the screen, such as a control signal, another cell line or another target. No call is given for them. Compounds called inactive in the main read-out are mostly missing here. Potencies come from curve fits of mixed quality, noted in brackets.

The assay in a line: IkB Signaling. The note with it: ABC-DLBCL IkBa-CBG/CBR dual luciferase ratio (green luciferase fused to IkBa over red control in OCI-Ly3 lymphoma cells), 4 h; measured here: control luc red channel unless noted. The essentials:
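In this assay, an IκBα–CBG68 fusion accumulates when IKK-driven degradation is blocked; native CBR normalizes for cell number. OCI-Ly3 cells were treated 4 h with compound and doxycycline, then green and red light read after Chroma-Glo addition.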
What is called AC50 is the concentration giving half of the maximal activity seen. On to `COC(=O)CSc1nnc(-c2cccc(O)c2)o1`, for which the AC50 was 3.16 µM [falling, partial curve].
Then `CCn1c(SCC(=O)c2cc(OC)ccc2OC)nnc1C1CC1`, with 39.8 µM [rising, single point] [measured here: IkB-luc green channel]; and `COc1ccc(C(C)=O)cc1CSc1nc(NCc2ccc(Cl)cc2)c2ccccc2n1`, with 1.26 µM [rising, full curve, poor fit]; and `CC1=C(C(=O)Nc2ccc(C)cc2C)C(c2cc(Br)ccc2F)n2ncc(C(=O)Nc3ccc(C)cc3)c2N1` (stereo not given), with 25.1 µM [falling, single point].
With `CCCn1c(CNc2ccccc2O)nc2ccccc21`, the AC50 is 5.01 µM [falling, partial curve].
As to `Cc1ccc(NC(=O)c2cnc(SCC(=O)N3CCCc4ccccc43)n(C)c2=O)cc1C`, the AC50 is 39.8 µM [falling, single point].
Then `Cn1c(CC2C(=O)Nc3ccc(Br)cc32)nc2ccccc2c1=O` (stereo not given), with 12.6 µM [falling, partial curve].
Then `O=C(OCc1ccco1)c1ccc2c(c1)N(Cc1ccc([N+](=O)[O-])cc1)C(=O)c1ccccc1S2`, with 39.8 µM [rising, partial curve, poor fit].
`O=C(CN1C(=O)COc2ccc(S(=O)(=O)N3CCCC3)cc21)NCCc1ccc(Cl)cc1`: the AC50 is 7.94 µM [falling, partial curve, poor fit].
Then `C=CCn1c(C)cc(C(=O)CSc2nc3ccccc3c(=O)[nH]2)c1C`, with 12.6 µM [falling, partial curve]; and `O=c1[nH]c2ccc(NS(=O)(=O)c3ccc(F)cc3)cc2s1`, with 12.6 µM [falling, partial curve]; and `COc1ccc2oc(=O)cc(CN3CCN(C(=O)c4ccccc4Br)CC3)c2c1`, with 25.1 µM [falling, single point].
For `CCNc1nc(NC(C)(C)C)nc(N(C#N)CC)n1`, the AC50 is 1.26 µM [rising, partial curve].
The result for `CCOC(=O)c1ccc2nc(NC(=O)c3ccco3)sc2c1` reads 12.6 µM [falling, partial curve].
Take `CCc1ccc(CNC(=O)c2ccc(NC(=O)N3CCSc4ncccc43)cc2)cc1`: the AC50 was 15.8 µM [falling, partial curve].
The result for `Cc1ccc(S(=O)(=O)N2CCC(c3nnc(-c4cccc(C)c4)o3)CC2)cc1` reads 39.8 µM [falling, single point]; that for `COc1cc(Cl)c(C)cc1NC(=O)CSc1nc2ccccc2o1`, 15.8 µM [falling, partial curve]; that for `O=c1c2ccccc2c(/C=N/c2ncn[nH]2)c(O)n1Cc1ccccc1`, 25.1 µM [falling, partial curve].
As for `CC(C)NC(=O)Cn1c(=O)nc(-c2ccccc2)c2ccccc21`, the AC50 was 1.58 µM [falling, full curve].
The result for `CCOc1ccc(CCNC(=O)c2ccc(C)c(-n3cnc4cccnc43)c2)cc1` reads 12.6 µM [falling, partial curve].
Then `Cc1cccc(N(C)C(=O)CS(=O)(=O)c2cccc3nsnc23)c1`, with 15.8 µM [falling, partial curve].
The result for `COc1cccc(CNC(=O)c2ccc3c(Cl)c4c(nc3c2)CCCC4)c1` reads 10 µM [falling, partial curve]; that for `Cc1ccc(C(C)C)c(OCc2ccc(C(=O)Nc3ccc(S(N)(=O)=O)cc3C)o2)c1`, 31.6 µM [falling, single point].
As to `CCOc1ccccc1NC(=O)C1CCN(S(=O)(=O)c2cccc3nonc23)CC1`, the AC50 was 7.94 µM [rising, single point].
Then `O=C(Nc1cc(-c2ccc(F)c(F)c2)no1)c1ccccc1F`, with 5.01 µM [falling, partial curve]; and `Cc1cccc(N2CCN(C(=O)C3CCCN(C(=O)c4cc5sccc5n4C)C3)CC2)c1C` (stereo not given), with 25.1 µM [falling, partial curve]; and `COc1ccc(N2CCN(c3ncnc4onc(C)c34)CC2)cc1`, with 1 µM [falling, partial curve, poor fit].
The result for `CCOc1ccc(CCNC(=O)Cn2ccc3cc(S(=O)(=O)N4CCCCCC4)ccc32)cc1` reads 1.58 µM [falling, full curve]; that for `COc1ccc(NC(=O)C(=O)c2cc(C)n(-c3ccc(C)cc3)c2C)cc1Cl`, 15.8 µM [falling, partial curve]; that for `Cn1c(CC(=O)Nc2ccccc2)nnc1SCCOc1ccccc1`, 5.01 µM [falling, partial curve].
As to `CCOC(=O)c1c(C)[nH]c(C)c1S(=O)(=O)N1CCCC(C(=O)Nc2ccc(OC)c(OC)c2)C1` (stereo not given), the AC50 is 39.8 µM [rising, single point].
As for `CC(C)c1ccc(NC(=O)c2cc(S(=O)(=O)NC3CCCCC3)ccc2F)cc1`, the AC50 is 31.6 µM [falling, partial curve, poor fit].
Then `Cc1cccc(NC(=O)CN(C)S(=O)(=O)c2cccc3cccnc23)c1`, with 15.8 µM [falling, partial curve]; and `COC(=O)c1cc(C)nc2c1c(=O)nc(SCc1cccc(C(F)(F)F)c1)n2C1CC1`, with 39.8 µM [falling, single point]; and `O=C(C1CCC(CNS(=O)(=O)c2cccs2)CC1)N1CCN(c2ccc(Cl)cc2)CC1` (stereo not given), with 10 µM [falling, partial curve].
Take `COc1ccc(CCNC(=O)Cn2c(=O)nc(-c3ccccc3F)c3cc(Cl)ccc32)cc1OC`: the AC50 was 20 µM [falling, partial curve].
Then `CCCn1c(SCC(O)c2cccc(OC)c2)nc2ccccc21` (stereo not given), with 3.16 µM [falling, partial curve].
As to `Cc1ccc2c(c1)NC(=O)C(CC(=O)NCCCN1CCN(c3cc(Cl)ccc3C)CC1)O2` (stereo not given), the AC50 is 15.8 µM [falling, partial curve].
The result for `COc1cc(NCCCC(C)N)c2ncccc2c1` (stereo not given) reads 15.8 µM [falling, partial curve].
The result for `Cc1cnc(C)c(N2CCC(C(=O)NCc3cccs3)CC2)n1` reads 10 nM [rising, full curve] [measured here: IkB-luc green channel].

Values taken from PubChem BioAssay AID445 (National Center for Advancing Translational Sciences (NCATS), 2006).
